## Library screening results

Chains of the proteins cited; added tags and fusions are not shown.
UniProt E9BF75, entry or part of it: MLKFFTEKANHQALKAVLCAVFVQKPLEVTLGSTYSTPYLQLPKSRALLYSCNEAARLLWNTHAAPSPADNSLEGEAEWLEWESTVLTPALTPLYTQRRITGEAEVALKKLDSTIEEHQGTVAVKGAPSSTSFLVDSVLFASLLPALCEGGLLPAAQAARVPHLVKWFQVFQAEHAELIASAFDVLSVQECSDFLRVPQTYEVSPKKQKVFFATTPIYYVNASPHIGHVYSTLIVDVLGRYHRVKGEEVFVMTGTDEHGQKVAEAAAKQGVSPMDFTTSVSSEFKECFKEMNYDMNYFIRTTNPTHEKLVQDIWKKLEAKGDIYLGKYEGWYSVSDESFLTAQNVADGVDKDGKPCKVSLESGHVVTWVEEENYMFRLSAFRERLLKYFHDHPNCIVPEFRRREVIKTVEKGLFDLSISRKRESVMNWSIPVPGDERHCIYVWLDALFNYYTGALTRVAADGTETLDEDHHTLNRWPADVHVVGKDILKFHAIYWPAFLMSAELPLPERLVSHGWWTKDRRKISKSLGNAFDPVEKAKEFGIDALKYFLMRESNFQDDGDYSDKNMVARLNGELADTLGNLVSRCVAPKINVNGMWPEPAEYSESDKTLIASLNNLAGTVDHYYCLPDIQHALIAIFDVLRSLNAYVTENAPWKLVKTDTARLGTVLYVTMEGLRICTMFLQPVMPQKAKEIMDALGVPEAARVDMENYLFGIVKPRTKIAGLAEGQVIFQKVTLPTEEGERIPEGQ

From ChEMBL document CHEMBL3988442, “University of Dundee, Small-Polar-MMV Screening Library” (2021).

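Methionyl-tRNA synthetase (putative), Leishmania donovani (UniProt E9BF75). Primary screen of methionyl-tRNA synthetase; the read-out is not stated. The test concentration is not given. The values are filed as inhibition. Size under these conditions: about 68,000 compounds, about 24 of them at 50% or above in at least one test.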

Results are percentages, as filed.
The controls that fix the scale are not given in the record; negative values are as filed.
The compounds are a random part of those screened.

SMILES | inhibition
Cc1ccc(-c2nnc(SCC(=O)O)n2-c2ccccc2)cc1 | 7.12
CCC(=O)NC1CCCN(Cn2nc(C(C)(C)C)ccc2=O)C1 (stereo not given) | 5.292
N#Cc1cccc(N2CCCC3(C2)CN(c2ncc(F)cn2)CCO3)n1 (stereo not given) | 11.23
O=C(c1ccc[nH]1)N1CC2(CCN(c3nccs3)C2)C1 | -11.5
Cc1cccc2c1NC(c1cnc(C3CCC3)s1)NC2=O (stereo not given) | 3.662
CC(C)CCN1CCC2(CC1)CN(C(=O)c1cnccn1)CCO2 | 17.99
Cc1cnc(N2CCC3(CCN(CC4CCCC4)C3=O)CC2)nc1 | 12.5
CC(=O)N1CC(c2n[nH]c3ncccc23)C1 | 4.255
Cn1cc(CCCNC(=O)NCC(O)c2ccsc2)cn1 (stereo not given) | 10.43
CC(C)(C)n1ncc2c1CCCC2NCc1cccc2c1OCO2 (stereo not given) | 4.861
Cc1ccsc1C(Cn1ccnc1-c1ccccc1C(=O)O)N(C)C (stereo not given) | 4.902
O=c1ccc(-c2cccs2)nn1CN1CCOCC1 | 10.61
CCOC(=O)CN1CCC2(CC1)CC(=O)c1ccc3ccccc3c1O2 | 8.611
Cc1nc(C(C)NC(=O)c2cn(Cc3ccc(Cl)cc3)nn2)n[nH]1 (stereo not given) | 2.145
CC(C)n1nc2c(cc1=O)CN(Cc1nc(-c3ccco3)no1)CC2 | 13.77
c1cnc(N2CC3(CCN(Cc4ccncc4)C3)C2)nc1 | 7.333
Cc1nc(NCc2coc(-c3ccccc3)n2)cc(C2CCNCC2)n1 | 1.408
CC(C)NC(=O)c1nnn(-c2ccc(F)cc2)c1C1CC1 | 12.75
Cc1cccc(CN2CCN(C(=O)c3cc(Cl)c[nH]c3=O)CC2)c1 | 4.8
CN(CC1CCCCO1)c1nc(-c2cccnc2)nc2c1CCNC2 (stereo not given) | 15.62
CC(C(=O)N1CCCC1)n1nc(-c2cccs2)cc(N)c1=O (stereo not given) | 6.667
COc1ccc(C(C(=O)O)N2CCC(Cn3cccn3)CC2)c(OC)n1 (stereo not given) | 2.09
Cc1cnn(CC2CCCN2CC(=O)NC2CCN(C3CC3)CC2)c1 (stereo not given) | 14.61
O=C1COc2cc(C(=O)NCc3ccc(Cl)s3)ccc2N1 | 10.08
COC(=O)C(NC(=O)C(C)C)c1cc(F)ccc1F (stereo not given) | 11.74
O=C(c1nnn(-c2ccccc2)n1)N(CCO)CCO | 5.932
O=C(C1CCC1)N1CCN(Cc2ccc(F)cc2)[C@H]2CS(=O)(=O)C[C@H]21 | 8.065
CC(C)NC(=O)c1nnc2ccc(N3CCOCC3)cc2n1 | -43.97
C[C@H](O)c1cnn(-c2ccccc2)c1 | -2.514
CO[C@H]1CN(C(=O)OC(C)(C)C)CC1NCc1ccn(C)c1 (stereo not given in full) | 6.364
O=C(NCc1cncc2c1CCN(Cc1cccc(F)c1)C2)C1CC1 | 13.5
CN(Cc1n[nH]c(=O)n1Cc1ccccc1F)S(C)(=O)=O | 14.29
CNC(=O)[C@H]1C[C@H]2OCC[C@H]2N(CCOc2ccc(Cl)cc2)C1 | 3.78
O=C(c1n[nH]c2c1CN(C1CCOCC1)CC2)N1CCCC1 | 11.2
COCCOCC(=O)NC(C#N)c1ccccc1C (stereo not given) | 17.08
CC(=O)N1CCCN(C(=O)C(C)n2cncn2)CC1 (stereo not given) | 11.4
CC(C)OCCN1CCC(Nc2ncc(Br)cn2)CC1 | 21.59
CC(C)C(C)N(Cc1ccccn1)Cc1ccco1 (stereo not given) | 16.06
CC(C)n1nnnc1-c1ccc(NC(=O)CCC(F)(F)F)cc1F | 5.721
O=C(c1cnoc1)N1CCC[C@]2(C[C@@H](OCc3ccccn3)CO2)C1 | 16.5
Cc1ccccc1CN(C)C(=O)c1cc(C2CCCN2C)ccn1 (stereo not given) | 11.65
COc1ccccc1N1CCN(C(=O)COc2c(C)occc2=O)CC1 | 9.329
CCc1nc(CCNS(=O)(=O)c2cccc(C(=O)N(C)CC)c2)cs1 | 9.756
CS(=O)(=O)N(Cc1ccon1)c1cccc(Br)c1 | 11.63
Cc1ccc(-c2nc(CNC(C)CCO)[nH]c2-c2ccccn2)cc1 (stereo not given) | 7.379
O=c1c(Cc2ccccc2)c(O)ccn1CCc1ccccc1 | 14.56
O=C(CSc1ccc2c(c1)OCCO2)NS(=O)(=O)c1cc(F)ccc1F | 4.12
CCc1cc(C)nc(N2CCN(C(C)c3nc(C)no3)CC2)n1 (stereo not given) | 9.507
O=C1CC(NS(=O)(=O)c2ccc3ccccc3c2)CN1 (stereo not given) | 12.96
COCCNC(=O)c1cc(OC)ccc1Br | 5.459
Cc1cnccc1-c1cnn(CCNC(=O)c2ccncc2)c1C1CC1 | 3.797
CCCN1CCCC(O)(c2nc(C)c(COc3ccccc3)s2)CC1 (stereo not given) | 4.787
c1cncc(CN(Cc2ccc(-n3ccnc3)cc2)CC2CCCO2)c1 (stereo not given) | 8.58
Cc1cc(C)n(CC2CCCCN2CCC(=O)Nc2cc(C)on2)n1 (stereo not given) | 17.66
Cc1nc(NCC2CC2)nc2c1COCC21CCN(S(=O)(=O)C2CC2)C1 (stereo not given) | 1.99
O=C(NC[C@]12COC[C@H]1CN(Cc1ccncc1)C2)c1ccno1 | 23.63
O=C(c1ccc(Cl)cc1)N1CCC2(CC1)C(=O)Nc1ccccc12 | 9.278
CCc1ccc(CN2CCc3c(nnn3C)C2COC)cc1 (stereo not given) | 13.28
Cc1nn(C)c(Cl)c1C1CCCN1C(=O)c1ccc(O)nc1 (stereo not given) | 12.22
CC(Cn1cccn1)NC(=O)C1=Cc2ccccc2OC1 (stereo not given) | 11.17
CC(C)c1cc(C(=O)NCC(O)C2CCOCC2)nn1C(C)(C)C (stereo not given) | 0
COCC1CN(C(=O)c2ccnnc2)Cc2c1cnn2C (stereo not given) | 12.89
CCS(=O)(=O)N1CC[C@@H]2[C@H](CC1)N(Cc1cccnc1)CCS2(=O)=O | 5.584
Cc1cc(C)n(CC2CCCN2C(=O)Cc2cn3ccsc3n2)n1 (stereo not given) | -1.282
CC(=O)N1CCCC1c1nnc2n1CCCCC2 (stereo not given) | 18.1
Cc1cc(CNc2ccnn2CC(C)C)ccc1-n1cncn1 | 9.487
CCc1ccc(C(=O)NC(C)c2ccc(S(C)(=O)=O)c(F)c2)o1 (stereo not given) | 16.03
COCCO[C@H]1CCN(C(=O)c2ccno2)[C@H]1Cc1ccncc1 | 18.68
CCS(=O)(=O)Nc1ccc(C(=O)NCCCN2CCCC2)cc1 | 13.38
CN1C[C@@H](NC(=O)c2cc(F)cc(F)c2)C[C@H]1C(=O)NCc1ncc[nH]1 | 6.62
COCCN1CCCC2(CCN(c3ccsc3)C2=O)C1 (stereo not given) | 13.74
Cc1cc(CN(C)C(=O)c2ccc(Cl)cc2N2CCCC2=O)no1 | 15.08

Repeated from the top, 8 entries:

SMILES,inhibition
Cc1ccc(-c2nnc(SCC(=O)O)n2-c2ccccc2)cc1,7.12
CCC(=O)NC1CCCN(Cn2nc(C(C)(C)C)ccc2=O)C1 (stereo not given),5.292
N#Cc1cccc(N2CCCC3(C2)CN(c2ncc(F)cn2)CCO3)n1 (stereo not given),11.23
O=C(c1ccc[nH]1)N1CC2(CCN(c3nccs3)C2)C1,-11.5
Cc1cccc2c1NC(c1cnc(C3CCC3)s1)NC2=O (stereo not given),3.662
CC(C)CCN1CCC2(CC1)CN(C(=O)c1cnccn1)CCO2,17.99
Cc1cnc(N2CCC3(CCN(CC4CCCC4)C3=O)CC2)nc1,12.5
CC(=O)N1CC(c2n[nH]c3ncccc23)C1,4.255